Experimental data reported in publication PMC6733871.
No constants are given. Whether binding was seen depends on the method and setting. Binding seen in cells or lysates may run through a third protein. A result given as binding can be weak or reduced; the word gives no strength.

Sequences of proteins named here, by UniProt entry; tags and fusion partners are left off. A change or cut given only in a name is not applied to a line headed by its entry.
UniProt P08253: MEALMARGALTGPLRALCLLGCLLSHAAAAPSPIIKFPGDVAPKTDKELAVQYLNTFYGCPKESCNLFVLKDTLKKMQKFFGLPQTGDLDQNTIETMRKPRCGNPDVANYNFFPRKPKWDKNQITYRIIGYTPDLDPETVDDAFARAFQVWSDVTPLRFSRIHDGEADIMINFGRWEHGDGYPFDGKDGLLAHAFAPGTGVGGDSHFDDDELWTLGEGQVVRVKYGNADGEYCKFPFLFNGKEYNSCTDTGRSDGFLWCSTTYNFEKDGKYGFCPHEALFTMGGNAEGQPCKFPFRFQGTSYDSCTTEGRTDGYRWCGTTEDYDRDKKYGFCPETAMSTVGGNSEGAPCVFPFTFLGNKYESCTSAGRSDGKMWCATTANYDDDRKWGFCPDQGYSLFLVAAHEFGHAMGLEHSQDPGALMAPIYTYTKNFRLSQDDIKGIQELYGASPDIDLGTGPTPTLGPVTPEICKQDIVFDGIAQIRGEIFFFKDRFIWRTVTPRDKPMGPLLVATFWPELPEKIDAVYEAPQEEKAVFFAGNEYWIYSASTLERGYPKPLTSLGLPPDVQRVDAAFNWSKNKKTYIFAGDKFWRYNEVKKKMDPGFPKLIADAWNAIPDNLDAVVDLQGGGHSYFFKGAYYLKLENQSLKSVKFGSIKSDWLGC

Biological target: T1, LPL in the co-immunoprecipitation with MMP2 (UniProt P13796)
T1 sequence: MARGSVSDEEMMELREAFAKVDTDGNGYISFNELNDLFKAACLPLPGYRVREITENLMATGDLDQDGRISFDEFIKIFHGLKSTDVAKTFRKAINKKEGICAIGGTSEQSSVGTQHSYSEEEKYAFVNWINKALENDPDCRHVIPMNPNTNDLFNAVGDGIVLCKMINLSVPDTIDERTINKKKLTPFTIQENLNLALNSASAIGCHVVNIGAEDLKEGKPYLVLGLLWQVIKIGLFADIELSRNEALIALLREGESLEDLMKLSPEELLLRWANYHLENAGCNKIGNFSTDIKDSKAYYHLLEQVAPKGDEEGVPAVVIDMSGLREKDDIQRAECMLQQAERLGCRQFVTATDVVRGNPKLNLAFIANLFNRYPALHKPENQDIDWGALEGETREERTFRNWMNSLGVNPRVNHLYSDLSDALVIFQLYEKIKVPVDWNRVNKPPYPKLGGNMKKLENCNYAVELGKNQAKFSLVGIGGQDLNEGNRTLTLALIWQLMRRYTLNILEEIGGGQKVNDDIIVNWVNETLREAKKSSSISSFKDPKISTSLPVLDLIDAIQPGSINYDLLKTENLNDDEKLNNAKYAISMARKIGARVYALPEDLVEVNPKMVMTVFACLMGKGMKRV
Test: co-IP; co-immunoprecipitation of MMP2 and LPL; conditions not told in the text shown (Supplementary Fig. 6e)

binding: binds
Substance: MMP2 (from UniProt P08253) (enzyme)
